This passage reports binding results from article doi:10.1101/2021.10.12.462922 (bioRxiv, 2021).

The chains behind the UniProt entries cited, without tags or fusion partners.
UniProt Q61818: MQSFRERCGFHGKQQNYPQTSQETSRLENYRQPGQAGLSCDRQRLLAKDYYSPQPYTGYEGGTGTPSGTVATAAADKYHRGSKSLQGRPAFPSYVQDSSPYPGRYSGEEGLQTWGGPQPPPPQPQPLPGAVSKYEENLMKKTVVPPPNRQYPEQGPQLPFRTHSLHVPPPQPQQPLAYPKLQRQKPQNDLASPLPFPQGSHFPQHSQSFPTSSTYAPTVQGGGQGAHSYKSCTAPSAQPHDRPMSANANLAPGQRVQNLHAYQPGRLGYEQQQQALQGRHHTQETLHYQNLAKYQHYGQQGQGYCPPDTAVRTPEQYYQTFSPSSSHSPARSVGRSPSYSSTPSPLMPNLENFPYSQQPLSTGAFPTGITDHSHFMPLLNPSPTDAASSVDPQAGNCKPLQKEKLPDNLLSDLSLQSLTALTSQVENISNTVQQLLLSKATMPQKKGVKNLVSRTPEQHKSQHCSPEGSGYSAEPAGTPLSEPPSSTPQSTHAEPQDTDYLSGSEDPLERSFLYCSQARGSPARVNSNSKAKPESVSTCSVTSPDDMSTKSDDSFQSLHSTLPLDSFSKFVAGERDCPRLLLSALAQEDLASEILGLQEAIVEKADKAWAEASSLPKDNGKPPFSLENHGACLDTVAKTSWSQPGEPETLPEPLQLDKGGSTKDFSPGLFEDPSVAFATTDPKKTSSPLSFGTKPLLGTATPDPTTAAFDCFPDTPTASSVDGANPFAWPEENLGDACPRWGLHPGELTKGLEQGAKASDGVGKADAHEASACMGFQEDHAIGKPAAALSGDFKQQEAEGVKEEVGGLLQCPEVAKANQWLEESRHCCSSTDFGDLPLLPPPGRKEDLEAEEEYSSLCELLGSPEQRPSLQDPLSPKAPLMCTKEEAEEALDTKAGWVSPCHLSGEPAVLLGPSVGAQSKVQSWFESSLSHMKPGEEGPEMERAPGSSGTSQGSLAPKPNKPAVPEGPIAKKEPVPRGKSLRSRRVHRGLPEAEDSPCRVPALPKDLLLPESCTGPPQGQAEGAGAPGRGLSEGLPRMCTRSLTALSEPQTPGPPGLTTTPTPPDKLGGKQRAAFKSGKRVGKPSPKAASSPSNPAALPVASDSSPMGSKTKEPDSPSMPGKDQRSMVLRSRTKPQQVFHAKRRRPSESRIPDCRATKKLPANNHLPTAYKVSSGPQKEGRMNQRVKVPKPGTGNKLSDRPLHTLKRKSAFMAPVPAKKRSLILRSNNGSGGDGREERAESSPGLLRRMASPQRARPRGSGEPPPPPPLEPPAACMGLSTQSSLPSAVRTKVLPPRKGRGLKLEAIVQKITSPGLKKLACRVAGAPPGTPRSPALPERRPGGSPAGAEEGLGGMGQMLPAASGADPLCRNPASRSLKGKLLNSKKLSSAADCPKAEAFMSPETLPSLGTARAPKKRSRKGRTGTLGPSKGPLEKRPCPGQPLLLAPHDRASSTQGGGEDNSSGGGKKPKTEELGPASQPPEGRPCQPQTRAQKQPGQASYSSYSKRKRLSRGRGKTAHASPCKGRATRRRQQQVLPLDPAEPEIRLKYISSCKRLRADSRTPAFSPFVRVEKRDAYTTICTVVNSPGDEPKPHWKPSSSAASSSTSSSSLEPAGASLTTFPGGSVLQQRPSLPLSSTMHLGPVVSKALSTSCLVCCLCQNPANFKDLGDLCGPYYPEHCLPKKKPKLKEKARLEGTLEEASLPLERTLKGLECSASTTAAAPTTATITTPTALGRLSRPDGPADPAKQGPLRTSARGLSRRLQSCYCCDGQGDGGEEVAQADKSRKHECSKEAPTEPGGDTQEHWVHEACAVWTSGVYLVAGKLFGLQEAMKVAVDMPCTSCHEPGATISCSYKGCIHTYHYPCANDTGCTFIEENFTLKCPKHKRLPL

In assay [1] the target is T1, Phf14 (PHD finger protein 14), mouse, endogenous (mouse (endogenous in ESCs and NPCs)) (UniProt Q9D4H9).
T1 sequence: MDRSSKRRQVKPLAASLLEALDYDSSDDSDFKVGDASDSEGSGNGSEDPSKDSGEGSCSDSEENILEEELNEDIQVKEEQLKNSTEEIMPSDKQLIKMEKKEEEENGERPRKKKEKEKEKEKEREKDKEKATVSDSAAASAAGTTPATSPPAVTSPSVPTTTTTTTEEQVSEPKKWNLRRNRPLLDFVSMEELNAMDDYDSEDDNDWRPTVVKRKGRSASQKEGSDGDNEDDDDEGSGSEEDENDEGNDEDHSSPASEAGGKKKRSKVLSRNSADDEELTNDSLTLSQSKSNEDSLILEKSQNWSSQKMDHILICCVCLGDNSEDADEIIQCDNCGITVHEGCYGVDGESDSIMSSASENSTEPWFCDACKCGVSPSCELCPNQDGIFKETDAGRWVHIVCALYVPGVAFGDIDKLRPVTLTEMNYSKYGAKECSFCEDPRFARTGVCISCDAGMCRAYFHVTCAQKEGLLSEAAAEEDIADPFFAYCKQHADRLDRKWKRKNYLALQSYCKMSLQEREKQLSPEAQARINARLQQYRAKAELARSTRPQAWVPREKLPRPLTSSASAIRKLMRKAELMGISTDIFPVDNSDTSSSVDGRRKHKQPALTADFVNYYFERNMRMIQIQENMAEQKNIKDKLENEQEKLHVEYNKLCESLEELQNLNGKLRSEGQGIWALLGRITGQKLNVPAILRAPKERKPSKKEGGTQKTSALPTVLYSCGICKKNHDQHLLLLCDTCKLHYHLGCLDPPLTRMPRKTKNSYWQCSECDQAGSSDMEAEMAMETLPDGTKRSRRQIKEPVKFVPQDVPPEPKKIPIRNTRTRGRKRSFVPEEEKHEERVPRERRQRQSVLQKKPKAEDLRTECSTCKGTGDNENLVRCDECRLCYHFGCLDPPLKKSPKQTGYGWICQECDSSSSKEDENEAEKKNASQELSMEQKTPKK
The experiment in a line: affinity purification with mass spectrometry.

Assay [2] has as its target Rai1-HA-3x-FLAG (endogenous Rai1 tagged at the C-terminus) (mouse (endogenous in ESC-derived cells)) (UniProt Q61818). The experiment in a line: affinity purification with mass spectrometry.

No constants are given. Whether binding was seen depends on the method and setting. Binding seen in cells or lysates may run through a third protein. A yes stands for co-enrichment or nearness to the bait. Other partners may have been found.

Consider “Rai1 (retinoic acid induced 1), mouse, endogenous (from UniProt Q61818 1-1889)”, for which the binding entry in assay [1] was “binds”.

B1: Phf14 (PHD finger protein 14), mouse, endogenous (protein, UniProt Q9D4H9 1-941)
chain: T1 sequence
As for B1, the binding entry in assay [2] was “binds”.
